Three molecules from publication PMC3605159, “Twist1 Controls a Cell-Specification Switch Governing Cell Fate Decisions within the Cardiac Neural Crest” (PLoS Genetics, 2013) can be followed below.

Sequences of proteins named here, by UniProt entry; tags and fusion partners are left off.
UniProt O35690: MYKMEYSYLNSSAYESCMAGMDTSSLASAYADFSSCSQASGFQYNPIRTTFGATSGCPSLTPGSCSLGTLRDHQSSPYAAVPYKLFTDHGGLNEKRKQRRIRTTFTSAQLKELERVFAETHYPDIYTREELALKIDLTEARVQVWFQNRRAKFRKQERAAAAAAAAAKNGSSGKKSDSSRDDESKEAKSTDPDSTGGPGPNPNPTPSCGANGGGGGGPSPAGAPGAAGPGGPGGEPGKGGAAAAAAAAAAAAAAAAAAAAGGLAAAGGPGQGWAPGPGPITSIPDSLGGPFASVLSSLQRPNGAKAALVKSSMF

Numbering of substitutions follows the chain as printed. Names and notes keep the numbering of the source. These are yes or no findings as the source states them, for the method shown. In cells and extracts the contact can be indirect. Some binding calls cover weakened binding; strength is not graded here.

In test [1] the target is T1, Ascl1 (UniProt Q02067).
T1 sequence: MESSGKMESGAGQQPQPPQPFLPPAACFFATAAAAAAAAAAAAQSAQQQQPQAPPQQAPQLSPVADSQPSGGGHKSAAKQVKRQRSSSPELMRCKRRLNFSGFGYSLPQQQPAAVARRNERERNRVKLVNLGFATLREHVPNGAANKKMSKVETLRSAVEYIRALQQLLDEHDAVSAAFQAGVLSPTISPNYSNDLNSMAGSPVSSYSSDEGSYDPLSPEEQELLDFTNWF
Kind of test: co-IP; data not shown.

For test [2], the target named is Twist1 (UniProt P26687). Kind of test: co-IP; unpublished results; Twist1 homodimerization.
Test [3] has as its target T2, Sox10 (rat, UniProt O55170 1-466).
T2 sequence (looked up): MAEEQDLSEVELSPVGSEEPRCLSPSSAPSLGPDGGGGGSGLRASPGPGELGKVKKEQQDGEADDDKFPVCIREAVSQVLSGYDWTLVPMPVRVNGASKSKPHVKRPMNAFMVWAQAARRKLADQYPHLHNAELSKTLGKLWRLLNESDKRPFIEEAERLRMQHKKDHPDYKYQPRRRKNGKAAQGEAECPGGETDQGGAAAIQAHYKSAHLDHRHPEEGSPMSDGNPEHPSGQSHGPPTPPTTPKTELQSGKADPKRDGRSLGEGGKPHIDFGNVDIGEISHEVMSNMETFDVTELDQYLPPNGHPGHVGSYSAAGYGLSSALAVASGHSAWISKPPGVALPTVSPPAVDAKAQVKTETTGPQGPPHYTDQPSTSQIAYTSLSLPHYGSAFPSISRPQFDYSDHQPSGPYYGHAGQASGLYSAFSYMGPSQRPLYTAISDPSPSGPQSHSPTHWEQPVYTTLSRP
Kind of test: co-IP; HEK 293 cells, epitope-tagged proteins, α-Myc and α-Flag; n = 3; densitometry with BioRad Quantity One.

Test [4] concerns the target Phox2b (UniProt O35690). Described as above.
Test [5] concerns the target Twist1 S192P (UniProt P26687). Kind of test: co-IP; unpublished results; Twist1 homodimerization.

B1: Twist1 (natural protein, UniProt P26687 1-206, looked up)
chain: MMQDVSSSPVSPADDSLSNSEEEPDRQQPASGKRGARKRRSSRRSAGGSAGPGGATGGGIGGGDEPGSPAQGKRGKKSAGGGGGGGAGGGGGGGGGSSSGGGSPQSYEELQTQRVMANVRERQRTQSLNEAFAALRKIIPTLPSDKLSKIQTLKLAARYIDFLYQVLQSDELDSKMASCSYVAHERLSYAFSVWRMEGAWSMSASH
In the case of B1, the binding result in test [1], in test [2], in test [3] and in test [4] was “binds” in each case.

B2: Twist1 T125;S127A (protein, UniProt P26687 1-206)
chain: B1 chain with T125A, S127A
Take B2: the binding result in test [4] is “binds”.

B3: Twist1 S192P (natural protein, UniProt P26687 1-206, looked up)
chain: B1 chain with S192P
On to B3, for which the binding entry in test [5] and in test [4] was “binds” in each case.
